Test results published in PubChem BioAssay AID330 (DTP/NCI, 2004).
The list does not hold the whole screen: it is rich in T/C values a quarter to a half above the control, in often repeated tests (any T/C) and in doses without a T/C. Other doses and runs of a compound stand elsewhere. T/C is the treated group as % of the vehicle group. Some doses have a count of surviving animals in place of a T/C: the source holds a T/C of zero for them, seemingly a mark for toxic or unscored doses. Some survivor counts are full or nearly so, which does not show that the dose was tolerated: the source hardly ever lists a survival T/C far under the control, and the zero likely stands for such cases as well. Survivors were counted at the toxicity check, usually on the fifth day, unless a day is given; later deaths do not show. Schedule codes are those of the source, taken here to give the interval after Q, in days (D) or hours (H), and the number of doses after X. Some entries were tested several times; the values are given in rising order. Where survival is the endpoint, this PubChem deposit counts one and a half times the control or more as active, and values a quarter to a half above the control carry no call in these data; other NCI protocols may use other cut-offs. Some T/C values are followed by the survivors on the day toxicity was checked, most often the fifth; where none is given, no animal had died by that day.

System: P388 leukemia ip, CD2F1 mice, survival T/C
Assay: NCI In Vivo Anticancer Drug Screen. Data for tumor model P388 Leukemia (intraperitoneal) in CD2F1 (CDF1) mice
Conditions: T/C endpoint: median survival time, higher T/C = longer survival
[1] = dose: 400.0 mg/kg/injection, schedule: Q04DX003 (ip), vehicle: Klucel (hydroxypropylcellulose) (HPC)
[2] = dose: 400.0 mg/kg/injection, schedule: Q04DX003 (ip), vehicle: saline with Tween-80
[3] = dose: 200.0 mg/kg/injection, schedule: Q01DX001 (ip), vehicle: saline with Tween-80
[4] = dose: 240.0 mg/kg/injection, schedule: Q01DX005 (ip), vehicle: saline with Tween-80
[5] = dose: 20.0 mg/kg/injection, schedule: Q04DX003 (ip), vehicle: saline with Tween-80
[6] = dose: 50.0 mg/kg/injection, schedule: Q01DX009 (ip), vehicle: saline with Tween-80
[7] = dose: 10.0 mg/kg/injection, schedule: Q01DX009 (ip), vehicle: saline + alcohol
[8] = dose: 200.0 mg/kg/injection, schedule: Q04DX003 (ip), vehicle: saline

## O=c1n(-c2ccccc2)c(=O)n2n1C1C=CC2C2C3OC3C21 (stereo not drawn)
dose: 100.0 mg/kg/injection, schedule: Q04DX003 (ip), vehicle: Klucel (hydroxypropylcellulose) (HPC)
  survivor count: 0 of 6
dose: 200.0 mg/kg/injection, schedule: Q04DX003 (ip), vehicle: Klucel (hydroxypropylcellulose) (HPC)
  survivor count: 0 of 6
[1]
  survivor count: 0 of 6

## CCOC(=O)C(Cc1ccc(N(CCCl)CCCl)cc1)NC(=O)C(Cc1ccccc1)NC=O (stereo not drawn)
dose: 12.5 mg/kg/injection, schedule: Q01DX009 (ip), vehicle: saline with Tween-80
  T/C: 145 % of control
[2]
  survivor count: 4 of 6

## Cc1cccc(C(=O)CCN(C)C)c1
dose: 100.0 mg/kg/injection, schedule: Q01DX009 (ip), vehicle: saline
  survivor count: 4 of 6
dose: 200.0 mg/kg/injection, schedule: Q01DX009 (ip), vehicle: saline
  survivor count: 0 of 6

## CC(=O)Nc1ccc(SSc2ccc(NC(C)=O)s2)s1
dose: 100.0 mg/kg/injection, schedule: Q01DX001 (ip), vehicle: saline with Tween-80
  survivor count: 5 of 6 and 6 of 6
[3]
  survivor count: 4 of 6

## Cc1csnn1
dose: 60.0 mg/kg/injection, schedule: Q01DX005 (ip), vehicle: saline with Tween-80
  survivor count: 6 of 6
dose: 120.0 mg/kg/injection, schedule: Q01DX005 (ip), vehicle: saline with Tween-80
  survivor count: 1 of 6
[4]
  survivor count: 0 of 6

## CC(C)CNC(=O)c1ccc(OCC(O)CNC(C)(C)C)c(Cl)c1 (stereo not drawn)
[1]
  survivor count: 0 of 6

## CCN1CCc2cccc3c2C1c1ccccc1CC3 (stereo not drawn)
[3]
  survivor count: 2 of 6

## NC(=S)Nc1ccccc1
[5]
  survivor count: 3 of 6
dose: 40.0 mg/kg/injection, schedule: Q04DX003 (ip), vehicle: saline with Tween-80
  survivor count: 0 of 6
dose: 80.0 mg/kg/injection, schedule: Q04DX003 (ip), vehicle: saline with Tween-80
  survivor count: 0 of 6

## [C-]#[O+].[C-]#[O+].[CH3][Sn]([CH3])[c]1ccccc1.[Fe+5].[c-]1[c-][c-][cH-][c-]1
[2]
  survivor count: 2 of 6

## COC(=O)c1c(O)c2c(c3c1OC(C)(C)CC3)OC(C)(C)CC2
[4]
  survivor count: 6 of 6

## O=c1[nH]c2ccccc2c2cc3ccccc3cc12
[6]
  survivor count: 6 of 6

## COC1CC(C)C(OC)c2cc(O)cc(c2O)NC(=O)/C(C)=C/C=C\C(C)C(OC(N)=O)/C(C)=C\C(C)C1OC (stereo not drawn)
dose: 1.25 mg/kg/injection, schedule: Q01DX009 (ip), vehicle: saline + alcohol
  T/C: 128 % of control
dose: 2.5 mg/kg/injection, schedule: Q01DX009 (ip), vehicle: saline + Tween-80 + alcohol
  T/C: 126 % of control
dose: 2.5 mg/kg/injection, schedule: Q01DX009 (ip), vehicle: saline + alcohol
  T/C: 142 % of control
dose: 5.0 mg/kg/injection, schedule: Q01DX009 (ip), vehicle: saline + Tween-80 + alcohol
  T/C: 141 % of control
dose: 5.0 mg/kg/injection, schedule: Q01DX009 (ip), vehicle: saline + alcohol
  T/C: 134, 135, 137 % of control
dose: 10.0 mg/kg/injection, schedule: Q01DX009 (ip), vehicle: saline + Tween-80 + alcohol
  survivor count: 6 of 6
[7]
  T/C: 144 and 145 % of control
  survivor count: 4 of 6
dose: 10.0 mg/kg/injection, schedule: Q01DX009 (sc), vehicle: saline + Tween-80 + alcohol
  survivor count: 5 of 6
dose: 20.0 mg/kg/injection, schedule: Q01DX009 (ip), vehicle: saline + Tween-80 + alcohol
  survivor count: 1 of 6
dose: 20.0 mg/kg/injection, schedule: Q01DX009 (ip), vehicle: saline + alcohol
  survivor count: 0 of 6
dose: 20.0 mg/kg/injection, schedule: Q01DX009 (sc), vehicle: saline + Tween-80 + alcohol
  survivor count: 0 of 6
dose: 30.0 mg/kg/injection, schedule: Q01DX009 (ip), vehicle: saline + Tween-80 + alcohol
  survivor count: 0 of 6
dose: 40.0 mg/kg/injection, schedule: Q01DX009 (ip), vehicle: saline + alcohol
  survivor count: 0 of 6
dose: 40.0 mg/kg/injection, schedule: Q01DX009 (sc), vehicle: saline + Tween-80 + alcohol
  survivor count: 1 of 6
dose: 60.0 mg/kg/injection, schedule: Q01DX009 (sc), vehicle: saline + Tween-80 + alcohol
  survivor count: 1 of 6

## Cn1c(=O)ccc2ccccc21
[8]
  T/C: 138 % of control [5 of 6 alive]
  survivor count: 4 of 6
dose: 400.0 mg/kg/injection, schedule: Q04DX003 (ip), vehicle: saline
  survivor count: 0 of 6 and 1 of 6

## COc1cc(NCCCCCCNC(C)C)c2ncccc2c1
dose: 50.0 mg/kg/injection, schedule: Q01DX005 (ip), vehicle: saline with Tween-80
  survivor count: 0 of 5
dose: 100.0 mg/kg/injection, schedule: Q01DX005 (ip), vehicle: saline with Tween-80
  survivor count: 0 of 5
dose: 200.0 mg/kg/injection, schedule: Q01DX005 (ip), vehicle: saline with Tween-80
  survivor count: 0 of 5

## Nc1ccc(NCCC2CCCN3CCCCC23)c2c(=O)c3ccccc3sc12 (stereo not drawn)
dose: 320.0 mg/kg/injection, schedule: Q01DX005 (ip), vehicle: saline with Tween-80
  survivor count: 5 of 6

## COC1C(C)OC(OC2CC(C)(O)C(C(=O)O)c3cc4c(c(O)c32)C(=O)c2c(O)cc3c(c2C4=O)OC2OC3(C)C(O)C(N(C)C)C2O)C(OC)C1(C)OC (stereo not drawn)
dose: 5.0 mg/kg/injection, schedule: Q01DX009 (ip), vehicle: other
  T/C: 130 % of control
dose: 10.0 mg/kg/injection, schedule: Q01DX009 (ip), vehicle: other
  T/C: 138 % of control
dose: 10.0 mg/kg/injection, schedule: Q04DX003 (ip), vehicle: other
  T/C: 129 and 133 % of control
dose: 20.0 mg/kg/injection, schedule: Q01DX009 (ip), vehicle: other
  T/C: 135 % of control
dose: 20.0 mg/kg/injection, schedule: Q04DX003 (ip), vehicle: other
  T/C: 132 % of control
dose: 40.0 mg/kg/injection, schedule: Q01DX009 (ip), vehicle: other
  survivor count: 6 of 6
dose: 40.0 mg/kg/injection, schedule: Q04DX003 (ip), vehicle: other
  T/C: 138 % of control
dose: 80.0 mg/kg/injection, schedule: Q04DX003 (ip), vehicle: other
  survivor count: 5 of 6

## c1ccc2c3[n+](ccc2c1)CCC[n+]1ccc2ccccc2c1-3
dose: 12.5 mg/kg/injection, schedule: Q01DX001 (ip), vehicle: saline
  survivor count: 1 of 6
dose: 25.0 mg/kg/injection, schedule: Q01DX001 (ip), vehicle: saline
  survivor count: 0 of 6
dose: 50.0 mg/kg/injection, schedule: Q01DX001 (ip), vehicle: saline
  survivor count: 0 of 6

## Cc1ccccc1C[P+](c1ccccc1)(c1ccccc1)c1ccccc1
dose: 20.0 mg/kg/injection, schedule: Q01DX009 (ip), vehicle: saline with Tween-80
  survivor count: 6 of 6
[5]
  T/C: 137 % of control
dose: 100.0 mg/kg/injection, schedule: Q04DX003 (ip), vehicle: saline with Tween-80
  survivor count: 0 of 6
dose: 200.0 mg/kg/injection, schedule: Q04DX003 (ip), vehicle: saline with Tween-80
  survivor count: 0 of 6
[2]
  survivor count: 0 of 6

## CC(=O)c1c(O)c(C)c(C)c2c1OC(=O)C2C (stereo not drawn)
dose: 25.0 mg/kg/injection, schedule: Q01DX009 (ip), vehicle: saline with Tween-80
  survivor count: 3 of 6
[6]
  survivor count: 0 of 6
dose: 100.0 mg/kg/injection, schedule: Q01DX009 (ip), vehicle: saline with Tween-80
  survivor count: 0 of 6

## O=[N+]([O-])c1ccc(S(=O)C2CCCCC2Cl)c([N+](=O)[O-])c1 (stereo not drawn)
dose: 400.0 mg/kg/injection, schedule: Q04DX002 (ip), vehicle: Klucel (hydroxypropylcellulose) (HPC)
  survivor count: 1 of 6
